The supplement of paper PMC10849652
The other results are listed elsewhere or left out.

Chains of the proteins cited; added tags and fusions are not shown. Lines headed by an entry give the natural chain unless they say otherwise; changes in a name come on top.
UniProt Q9Y5Y2: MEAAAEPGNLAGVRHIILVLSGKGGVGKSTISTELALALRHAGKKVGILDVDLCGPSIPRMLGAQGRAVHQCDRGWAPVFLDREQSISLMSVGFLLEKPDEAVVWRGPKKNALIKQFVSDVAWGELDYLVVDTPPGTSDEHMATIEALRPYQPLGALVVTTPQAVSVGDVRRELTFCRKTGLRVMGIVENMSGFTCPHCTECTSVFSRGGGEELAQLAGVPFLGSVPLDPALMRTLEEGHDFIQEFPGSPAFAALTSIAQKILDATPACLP
UniProt A8MXV4: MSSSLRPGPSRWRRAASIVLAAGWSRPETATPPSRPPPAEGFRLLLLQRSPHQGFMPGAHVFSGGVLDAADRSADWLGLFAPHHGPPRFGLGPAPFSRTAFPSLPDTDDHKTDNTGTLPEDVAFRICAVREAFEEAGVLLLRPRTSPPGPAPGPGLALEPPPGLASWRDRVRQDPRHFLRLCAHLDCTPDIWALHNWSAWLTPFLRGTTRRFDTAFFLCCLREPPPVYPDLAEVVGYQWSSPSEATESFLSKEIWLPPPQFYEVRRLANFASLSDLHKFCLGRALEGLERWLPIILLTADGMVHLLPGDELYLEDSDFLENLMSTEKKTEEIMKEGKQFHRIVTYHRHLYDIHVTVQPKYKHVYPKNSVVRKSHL
UniProt Q96IY1: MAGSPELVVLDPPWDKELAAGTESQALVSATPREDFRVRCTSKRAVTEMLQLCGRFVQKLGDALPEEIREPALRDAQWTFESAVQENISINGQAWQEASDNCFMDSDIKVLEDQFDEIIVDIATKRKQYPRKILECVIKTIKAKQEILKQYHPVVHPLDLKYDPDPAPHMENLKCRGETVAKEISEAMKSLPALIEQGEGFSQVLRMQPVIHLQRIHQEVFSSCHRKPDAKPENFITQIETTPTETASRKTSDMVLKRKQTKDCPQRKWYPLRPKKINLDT
UniProt Q8WV22: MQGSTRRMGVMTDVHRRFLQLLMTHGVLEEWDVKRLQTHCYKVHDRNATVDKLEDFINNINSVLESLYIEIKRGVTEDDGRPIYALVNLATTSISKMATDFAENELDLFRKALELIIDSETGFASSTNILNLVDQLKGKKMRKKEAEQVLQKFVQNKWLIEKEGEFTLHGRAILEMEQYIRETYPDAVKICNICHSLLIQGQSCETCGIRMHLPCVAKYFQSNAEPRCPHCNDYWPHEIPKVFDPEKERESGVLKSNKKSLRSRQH
UniProt Q9Y5B8, whole entry, looked up: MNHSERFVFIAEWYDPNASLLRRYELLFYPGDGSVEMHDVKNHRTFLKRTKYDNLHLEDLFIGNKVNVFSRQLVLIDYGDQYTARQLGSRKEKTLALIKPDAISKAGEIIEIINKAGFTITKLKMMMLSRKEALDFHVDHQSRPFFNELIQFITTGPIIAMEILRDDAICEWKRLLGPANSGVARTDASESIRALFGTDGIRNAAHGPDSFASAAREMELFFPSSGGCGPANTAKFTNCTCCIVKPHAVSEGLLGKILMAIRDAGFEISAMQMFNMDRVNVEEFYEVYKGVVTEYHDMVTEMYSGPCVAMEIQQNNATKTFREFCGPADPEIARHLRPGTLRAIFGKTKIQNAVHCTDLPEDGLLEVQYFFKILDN
UniProt Q86UY8: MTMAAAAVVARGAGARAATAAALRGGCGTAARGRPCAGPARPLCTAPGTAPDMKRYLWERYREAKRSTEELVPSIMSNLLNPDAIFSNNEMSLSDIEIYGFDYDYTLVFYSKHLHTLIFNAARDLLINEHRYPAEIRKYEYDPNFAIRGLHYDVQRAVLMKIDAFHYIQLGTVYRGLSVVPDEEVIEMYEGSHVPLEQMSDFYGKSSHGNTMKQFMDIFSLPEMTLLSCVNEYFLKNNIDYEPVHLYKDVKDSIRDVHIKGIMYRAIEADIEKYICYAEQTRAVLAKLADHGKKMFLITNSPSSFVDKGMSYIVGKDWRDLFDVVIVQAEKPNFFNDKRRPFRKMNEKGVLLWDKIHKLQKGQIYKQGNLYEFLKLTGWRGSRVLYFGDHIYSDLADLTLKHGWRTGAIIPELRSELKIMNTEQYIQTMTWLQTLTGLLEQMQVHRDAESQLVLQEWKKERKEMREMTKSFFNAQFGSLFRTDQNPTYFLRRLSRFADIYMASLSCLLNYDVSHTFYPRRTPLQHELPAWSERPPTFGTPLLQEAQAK
UniProt P57740: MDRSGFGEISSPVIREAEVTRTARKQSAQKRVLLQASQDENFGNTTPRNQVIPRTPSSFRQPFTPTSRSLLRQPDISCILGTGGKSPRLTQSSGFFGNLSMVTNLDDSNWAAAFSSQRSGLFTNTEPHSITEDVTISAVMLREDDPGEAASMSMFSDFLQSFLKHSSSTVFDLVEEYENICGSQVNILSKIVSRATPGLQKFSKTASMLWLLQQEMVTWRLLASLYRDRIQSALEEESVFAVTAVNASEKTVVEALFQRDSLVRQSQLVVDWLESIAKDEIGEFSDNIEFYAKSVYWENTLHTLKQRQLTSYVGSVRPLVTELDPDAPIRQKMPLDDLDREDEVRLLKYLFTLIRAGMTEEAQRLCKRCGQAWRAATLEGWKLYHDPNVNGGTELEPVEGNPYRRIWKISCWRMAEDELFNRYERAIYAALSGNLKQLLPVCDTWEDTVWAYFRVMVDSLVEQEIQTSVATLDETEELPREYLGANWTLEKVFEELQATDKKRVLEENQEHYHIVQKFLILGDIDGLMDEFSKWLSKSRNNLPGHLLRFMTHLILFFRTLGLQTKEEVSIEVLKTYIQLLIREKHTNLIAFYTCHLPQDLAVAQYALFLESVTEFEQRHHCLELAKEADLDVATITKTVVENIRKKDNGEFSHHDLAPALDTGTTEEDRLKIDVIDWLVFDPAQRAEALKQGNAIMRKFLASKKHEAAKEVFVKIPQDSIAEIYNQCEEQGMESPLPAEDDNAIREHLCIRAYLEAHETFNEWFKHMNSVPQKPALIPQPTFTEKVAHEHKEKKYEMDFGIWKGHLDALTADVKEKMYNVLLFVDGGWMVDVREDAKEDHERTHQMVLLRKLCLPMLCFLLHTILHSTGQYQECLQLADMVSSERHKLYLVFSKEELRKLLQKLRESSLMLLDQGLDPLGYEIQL
UniProt Q5JPE7: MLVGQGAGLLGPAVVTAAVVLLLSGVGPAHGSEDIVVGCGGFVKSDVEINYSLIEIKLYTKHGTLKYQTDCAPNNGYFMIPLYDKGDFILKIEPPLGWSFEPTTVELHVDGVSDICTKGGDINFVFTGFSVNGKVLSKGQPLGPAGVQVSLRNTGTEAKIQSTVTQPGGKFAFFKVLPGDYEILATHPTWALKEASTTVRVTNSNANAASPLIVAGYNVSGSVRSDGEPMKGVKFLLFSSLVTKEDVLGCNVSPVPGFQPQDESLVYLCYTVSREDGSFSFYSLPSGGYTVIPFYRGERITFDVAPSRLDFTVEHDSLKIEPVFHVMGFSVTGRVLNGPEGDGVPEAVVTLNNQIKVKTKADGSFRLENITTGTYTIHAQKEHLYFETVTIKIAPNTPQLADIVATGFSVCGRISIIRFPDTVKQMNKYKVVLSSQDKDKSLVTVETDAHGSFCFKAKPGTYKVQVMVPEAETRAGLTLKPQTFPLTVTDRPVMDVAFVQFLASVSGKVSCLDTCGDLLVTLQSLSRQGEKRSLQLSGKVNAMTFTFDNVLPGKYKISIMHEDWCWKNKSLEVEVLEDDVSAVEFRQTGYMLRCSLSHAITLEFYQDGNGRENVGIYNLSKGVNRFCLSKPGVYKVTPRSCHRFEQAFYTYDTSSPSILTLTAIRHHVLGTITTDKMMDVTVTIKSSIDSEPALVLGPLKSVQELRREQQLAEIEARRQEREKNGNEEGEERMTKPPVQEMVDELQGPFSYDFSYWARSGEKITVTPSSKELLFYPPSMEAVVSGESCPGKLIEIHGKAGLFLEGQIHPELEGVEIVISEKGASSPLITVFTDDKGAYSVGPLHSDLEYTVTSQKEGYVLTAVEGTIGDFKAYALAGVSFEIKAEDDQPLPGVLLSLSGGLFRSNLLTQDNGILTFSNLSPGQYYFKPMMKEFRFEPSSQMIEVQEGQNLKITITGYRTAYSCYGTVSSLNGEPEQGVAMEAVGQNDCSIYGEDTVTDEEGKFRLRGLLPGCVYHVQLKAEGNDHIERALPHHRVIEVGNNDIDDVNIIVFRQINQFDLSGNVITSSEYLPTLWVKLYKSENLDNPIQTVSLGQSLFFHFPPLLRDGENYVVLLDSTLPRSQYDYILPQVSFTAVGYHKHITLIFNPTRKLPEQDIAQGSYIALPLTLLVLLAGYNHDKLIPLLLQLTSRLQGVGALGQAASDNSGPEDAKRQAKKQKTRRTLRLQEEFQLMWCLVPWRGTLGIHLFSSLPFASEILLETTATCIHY
UniProt Q8IVD9: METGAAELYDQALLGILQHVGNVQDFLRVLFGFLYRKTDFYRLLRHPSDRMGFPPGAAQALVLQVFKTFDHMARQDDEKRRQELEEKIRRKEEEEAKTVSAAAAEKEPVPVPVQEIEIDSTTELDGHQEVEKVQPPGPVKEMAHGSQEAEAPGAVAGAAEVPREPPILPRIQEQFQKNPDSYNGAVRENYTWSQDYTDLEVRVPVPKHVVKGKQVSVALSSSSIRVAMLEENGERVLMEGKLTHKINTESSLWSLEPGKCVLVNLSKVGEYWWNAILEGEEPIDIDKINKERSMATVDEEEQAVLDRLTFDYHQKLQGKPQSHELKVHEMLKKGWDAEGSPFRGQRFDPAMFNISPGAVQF

Key:
Assay in all cases: log2 fold change, soluble protein after heating vs DMSO (PISA); higher = thermal stabilisation; K562 lysate, 10 uM; active = over 0.2 and 3.5 SD of the protein, either way, in both replicates (recomputed)
[1] = compound: C1=CC=C(C=C1)[C@H](COC2=CC3=C(C=C2)NC(=O)N3)NC(=O)C4=CC=CN(C4=O)CC5=CC(=C(C=C5)F)F
How it was run: (§1)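 Dounce homogenisation of K562 pellets in PBS pH 7.4 with 1 mM MgCl2 produced a crude extract, used at 1 mg/mL protein. Exposure to 10 μM compound lasted 30 min, and aliquots were then heated for 3 min across 48°C-58°C, pooled and brought to 0.5% NP-40 at 4°C. The supernatant after 21,000xg for 90 min was quantified by TMTpro 16plex LC-MS/MS with channel sums equalised. Duplicate values are given as log-two fold change in thermal stability relative to solvent controls.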

[2] = compound: CC1=C(SC2=C1C(=N[C@H](C3=NN=C(N32)C)CC(=O)N)C4=CC=C(C=C4)Cl)C
How it was run: as §1

[3] = compound: CC1=C2C(=CC=C1)N=C(N(C2=O)C3=CC=CC=C3C)CN4C=NC5=C(N=CN=C54)N
How it was run: as §1

[4] = compound: Cc1sc2c(c1C)C(c1ccc(Cl)cc1)=N[C@@H](CC(=O)OC(C)(C)C)c1nnc(C)n1-2
How it was run: as §1

[5] = compound: c1ccc([C@@H]2C[C@H]2NC2CCNCC2)cc1
How it was run: as §1

Measured: log2 fold change

NUBP2 (UniProt Q9Y5Y2)
inactive: [1] -0.021 | [2] -0.007 | [3] 0.048 | [4] 0.027 | [5] 0.146

NUDT19 (UniProt A8MXV4)
inactive: [1] -0.003 | [2] 0.014 | [3] 0.006 | [4] 0.001 | [5] 0.022

NSL1 (UniProt Q96IY1)
inactive: [1] 0.028 | [2] 0.012 | [3] -0.001 | [4] 0.053 | [5] -0.014

NSMCE1 (UniProt Q8WV22)
inactive: [1] -0.034 | [2] 0.083 | [3] -0.004 | [4] -0.073 | [5] 0.017

NME7 (UniProt Q9Y5B8)
inactive: [1] -0.037 | [2] -0.073 | [3] 0.015 | [4] 0.029 | [5] 0.032

NT5DC3 (UniProt Q86UY8)
inactive: [1] 0.032 | [2] 0.001 | [3] 0.009 | [4] -0.025 | [5] -0.068

NUP107 (UniProt P57740)
inactive: [1] 0.063 | [2] 0.003 | [3] 0.052 | [4] -0.013 | [5] -0.006

NOMO2 (UniProt Q5JPE7)
inactive: [1] -0.026 | [2] 0.045 | [3] 0.013 | [4] -0.019 | [5] -0.011

NUDCD3 (UniProt Q8IVD9)
inactive: [1] 0.017 | [2] 0.011 | [3] -0.014 | [4] 0.029 | [5] -0.026
